{
  "sequences": {"note": "The chains behind the UniProt entries cited, without tags or fusion partners. Where a name states a change or a piece, a line headed by the entry shows the natural chain unless it says otherwise.", "UniProt Q9LF51": "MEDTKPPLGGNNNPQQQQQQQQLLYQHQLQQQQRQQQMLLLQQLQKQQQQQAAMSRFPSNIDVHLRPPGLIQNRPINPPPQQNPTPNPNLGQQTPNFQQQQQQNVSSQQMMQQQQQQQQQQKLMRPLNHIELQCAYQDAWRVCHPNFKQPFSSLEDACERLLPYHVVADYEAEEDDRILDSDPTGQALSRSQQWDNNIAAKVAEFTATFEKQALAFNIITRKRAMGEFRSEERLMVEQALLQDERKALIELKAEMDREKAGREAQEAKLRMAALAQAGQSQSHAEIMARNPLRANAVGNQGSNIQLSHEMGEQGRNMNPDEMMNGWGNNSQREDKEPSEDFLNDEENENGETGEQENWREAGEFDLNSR", "UniProt Q9FMT4": "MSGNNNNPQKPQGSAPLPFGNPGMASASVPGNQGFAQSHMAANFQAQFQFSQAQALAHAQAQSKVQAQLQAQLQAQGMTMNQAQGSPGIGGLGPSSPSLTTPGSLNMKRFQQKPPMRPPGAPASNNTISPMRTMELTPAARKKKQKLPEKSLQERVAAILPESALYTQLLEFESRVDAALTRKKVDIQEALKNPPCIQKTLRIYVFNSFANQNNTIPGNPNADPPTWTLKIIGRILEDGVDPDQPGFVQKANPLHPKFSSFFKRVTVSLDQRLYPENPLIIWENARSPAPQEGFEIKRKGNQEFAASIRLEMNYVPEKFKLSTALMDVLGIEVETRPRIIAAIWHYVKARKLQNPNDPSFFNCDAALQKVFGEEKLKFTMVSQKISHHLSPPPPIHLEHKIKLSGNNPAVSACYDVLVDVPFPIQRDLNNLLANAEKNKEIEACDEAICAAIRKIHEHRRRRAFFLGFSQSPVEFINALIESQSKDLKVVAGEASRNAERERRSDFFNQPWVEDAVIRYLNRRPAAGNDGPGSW", "UniProt Q9LM88": "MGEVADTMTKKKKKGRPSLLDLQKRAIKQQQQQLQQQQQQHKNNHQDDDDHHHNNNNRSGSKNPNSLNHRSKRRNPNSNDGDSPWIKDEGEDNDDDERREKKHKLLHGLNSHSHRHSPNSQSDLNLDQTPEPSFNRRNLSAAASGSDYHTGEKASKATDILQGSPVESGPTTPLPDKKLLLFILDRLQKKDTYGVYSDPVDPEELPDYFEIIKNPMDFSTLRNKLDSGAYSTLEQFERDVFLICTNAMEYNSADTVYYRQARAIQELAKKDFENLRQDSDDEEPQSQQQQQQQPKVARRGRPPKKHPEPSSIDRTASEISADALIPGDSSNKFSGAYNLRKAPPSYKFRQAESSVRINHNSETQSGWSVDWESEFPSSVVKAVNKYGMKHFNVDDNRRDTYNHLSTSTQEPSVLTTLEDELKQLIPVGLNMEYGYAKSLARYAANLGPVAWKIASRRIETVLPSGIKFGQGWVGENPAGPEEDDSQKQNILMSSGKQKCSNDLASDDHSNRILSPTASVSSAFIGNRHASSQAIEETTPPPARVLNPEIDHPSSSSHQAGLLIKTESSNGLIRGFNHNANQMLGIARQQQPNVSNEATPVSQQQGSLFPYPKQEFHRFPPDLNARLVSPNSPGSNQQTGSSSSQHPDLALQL", "UniProt Q9LE42": "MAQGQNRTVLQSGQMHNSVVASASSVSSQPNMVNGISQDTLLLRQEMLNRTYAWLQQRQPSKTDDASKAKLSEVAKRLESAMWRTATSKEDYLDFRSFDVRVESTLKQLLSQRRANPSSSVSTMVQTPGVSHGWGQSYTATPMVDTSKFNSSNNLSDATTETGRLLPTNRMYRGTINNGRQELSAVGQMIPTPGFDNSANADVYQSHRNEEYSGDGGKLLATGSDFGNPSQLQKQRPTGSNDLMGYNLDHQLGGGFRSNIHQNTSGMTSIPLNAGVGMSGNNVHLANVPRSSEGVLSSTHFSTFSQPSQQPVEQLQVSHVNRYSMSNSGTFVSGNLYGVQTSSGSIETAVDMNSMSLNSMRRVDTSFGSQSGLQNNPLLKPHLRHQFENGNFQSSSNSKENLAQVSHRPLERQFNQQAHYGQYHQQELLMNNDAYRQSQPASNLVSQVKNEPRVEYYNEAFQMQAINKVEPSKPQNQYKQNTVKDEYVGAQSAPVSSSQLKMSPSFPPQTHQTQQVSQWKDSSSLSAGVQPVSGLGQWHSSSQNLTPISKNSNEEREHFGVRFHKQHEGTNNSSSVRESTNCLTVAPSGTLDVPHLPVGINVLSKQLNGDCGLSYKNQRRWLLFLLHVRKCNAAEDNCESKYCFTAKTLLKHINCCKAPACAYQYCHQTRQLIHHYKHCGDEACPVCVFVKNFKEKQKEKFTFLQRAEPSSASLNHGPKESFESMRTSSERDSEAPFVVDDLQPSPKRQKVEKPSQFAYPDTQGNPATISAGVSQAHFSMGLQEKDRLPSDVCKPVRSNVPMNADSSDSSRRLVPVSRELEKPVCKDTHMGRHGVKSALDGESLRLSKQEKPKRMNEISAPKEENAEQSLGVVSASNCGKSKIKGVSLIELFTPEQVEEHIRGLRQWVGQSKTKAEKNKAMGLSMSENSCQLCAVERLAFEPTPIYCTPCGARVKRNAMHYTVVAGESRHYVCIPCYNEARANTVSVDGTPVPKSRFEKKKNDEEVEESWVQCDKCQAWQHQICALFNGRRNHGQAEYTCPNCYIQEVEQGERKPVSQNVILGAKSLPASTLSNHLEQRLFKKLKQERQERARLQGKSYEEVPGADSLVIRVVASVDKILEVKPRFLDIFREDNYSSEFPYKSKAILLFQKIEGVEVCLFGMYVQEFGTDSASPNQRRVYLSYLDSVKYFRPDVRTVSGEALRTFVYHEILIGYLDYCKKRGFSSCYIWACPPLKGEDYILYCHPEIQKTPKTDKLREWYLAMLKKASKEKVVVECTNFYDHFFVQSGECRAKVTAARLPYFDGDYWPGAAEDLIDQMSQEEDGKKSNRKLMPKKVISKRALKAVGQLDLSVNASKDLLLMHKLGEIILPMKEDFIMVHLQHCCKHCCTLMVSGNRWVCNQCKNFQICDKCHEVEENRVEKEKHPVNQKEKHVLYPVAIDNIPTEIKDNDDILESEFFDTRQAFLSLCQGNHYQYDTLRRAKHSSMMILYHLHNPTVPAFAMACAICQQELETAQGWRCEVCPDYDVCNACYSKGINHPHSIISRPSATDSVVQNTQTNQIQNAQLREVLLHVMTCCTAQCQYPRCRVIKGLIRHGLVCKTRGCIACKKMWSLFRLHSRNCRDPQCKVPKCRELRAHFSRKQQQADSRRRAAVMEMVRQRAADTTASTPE", "UniProt Q6EVK6": "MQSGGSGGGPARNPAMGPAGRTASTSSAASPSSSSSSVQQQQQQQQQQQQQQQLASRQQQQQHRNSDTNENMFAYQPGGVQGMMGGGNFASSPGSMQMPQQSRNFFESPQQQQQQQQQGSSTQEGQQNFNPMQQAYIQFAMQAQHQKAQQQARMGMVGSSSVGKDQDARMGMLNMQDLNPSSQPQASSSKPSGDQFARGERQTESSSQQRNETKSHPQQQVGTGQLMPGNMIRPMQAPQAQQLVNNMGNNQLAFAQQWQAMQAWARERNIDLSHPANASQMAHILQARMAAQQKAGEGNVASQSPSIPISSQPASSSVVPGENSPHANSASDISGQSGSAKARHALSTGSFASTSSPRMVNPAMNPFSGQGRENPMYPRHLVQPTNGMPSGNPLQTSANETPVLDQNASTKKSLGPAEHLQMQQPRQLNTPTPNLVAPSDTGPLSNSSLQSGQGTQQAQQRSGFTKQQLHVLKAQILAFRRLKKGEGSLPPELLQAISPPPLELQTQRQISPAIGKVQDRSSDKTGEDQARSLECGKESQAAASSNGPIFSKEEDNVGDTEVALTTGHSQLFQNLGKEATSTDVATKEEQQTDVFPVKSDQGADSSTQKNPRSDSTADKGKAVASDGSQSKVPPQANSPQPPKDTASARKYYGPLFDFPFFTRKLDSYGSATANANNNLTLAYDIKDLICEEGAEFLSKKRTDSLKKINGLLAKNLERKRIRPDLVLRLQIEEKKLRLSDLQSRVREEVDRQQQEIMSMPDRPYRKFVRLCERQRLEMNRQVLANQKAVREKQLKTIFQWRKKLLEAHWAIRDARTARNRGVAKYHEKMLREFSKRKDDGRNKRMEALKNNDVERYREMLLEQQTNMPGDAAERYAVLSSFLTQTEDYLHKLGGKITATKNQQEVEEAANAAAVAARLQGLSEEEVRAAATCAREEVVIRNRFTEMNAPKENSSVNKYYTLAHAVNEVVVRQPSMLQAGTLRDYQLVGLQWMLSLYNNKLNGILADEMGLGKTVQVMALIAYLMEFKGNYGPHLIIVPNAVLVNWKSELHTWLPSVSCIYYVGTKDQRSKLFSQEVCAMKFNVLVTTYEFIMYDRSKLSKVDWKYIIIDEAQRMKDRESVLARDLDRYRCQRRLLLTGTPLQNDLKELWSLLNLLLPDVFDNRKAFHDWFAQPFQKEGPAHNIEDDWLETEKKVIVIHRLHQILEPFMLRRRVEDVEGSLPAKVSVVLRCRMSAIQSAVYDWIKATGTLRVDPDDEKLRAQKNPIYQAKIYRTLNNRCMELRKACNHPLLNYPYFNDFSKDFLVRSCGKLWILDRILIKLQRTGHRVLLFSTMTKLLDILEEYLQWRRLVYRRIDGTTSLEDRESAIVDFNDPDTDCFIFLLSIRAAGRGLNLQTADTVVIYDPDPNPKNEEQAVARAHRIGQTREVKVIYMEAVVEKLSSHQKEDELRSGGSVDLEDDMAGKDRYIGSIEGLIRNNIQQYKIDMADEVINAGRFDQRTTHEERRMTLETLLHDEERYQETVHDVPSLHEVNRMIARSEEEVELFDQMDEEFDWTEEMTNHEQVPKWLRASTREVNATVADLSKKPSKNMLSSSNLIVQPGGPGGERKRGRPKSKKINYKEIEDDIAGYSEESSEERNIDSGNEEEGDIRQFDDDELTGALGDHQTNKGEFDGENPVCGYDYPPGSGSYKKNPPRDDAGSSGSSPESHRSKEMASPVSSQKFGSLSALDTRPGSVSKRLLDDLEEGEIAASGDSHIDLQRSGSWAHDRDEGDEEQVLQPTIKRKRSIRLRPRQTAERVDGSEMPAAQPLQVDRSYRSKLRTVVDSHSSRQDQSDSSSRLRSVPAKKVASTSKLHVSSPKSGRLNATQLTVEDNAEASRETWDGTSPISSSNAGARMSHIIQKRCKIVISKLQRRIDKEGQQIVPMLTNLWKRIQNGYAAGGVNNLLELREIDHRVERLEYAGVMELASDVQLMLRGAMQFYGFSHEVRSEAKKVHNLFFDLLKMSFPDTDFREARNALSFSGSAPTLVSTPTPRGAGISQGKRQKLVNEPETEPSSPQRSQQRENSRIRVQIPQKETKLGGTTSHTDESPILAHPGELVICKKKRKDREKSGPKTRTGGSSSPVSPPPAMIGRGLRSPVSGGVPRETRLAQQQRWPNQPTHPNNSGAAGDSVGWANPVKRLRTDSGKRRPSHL"},
  "source": "paper doi:10.1101/2023.08.23.554515",
  "molecules": {"B1": {"name": "SPT20 (endogenous) (protein, UniProt F4IDB2 1-1325)", "chain": "MGVSFKISKVGRKFRPKISTELATPDSPKAIVLSGKPKATDDSNIGDVSGFSKPSLPDISPDHEVSFILSLYPNGYSIGKTSEAMQQISFRDVPKVLHPYDRAAEGLLSAIEAGRLPGDILEDIPCKFVDGVVICEVHDYRKHTSSQVSPVINKLRLKMSLENVVKDIPSMSDNSWTYGDLMEVESRILKALQPELCLDPLPRLDRLSKNPLTAKLDLSLSTLRRKRLRQMAEVTVMSQNKIQGKKVCIDRLPESSERGNLPGHLIMQQTNNNQAIQNLGTNMLAGLRSQPLQDAPNSSLALVPPQQQRYMGIGSTRNTQDQGSNSVSVSGASPGGLDAMLPYGSDSMNPGTSFHRKRESQEGQMSSMPGLNKRTRVSHMGPDGVPQQQLGQRMDGLHGSDTNWKNTLLQHQDMLGRSIQYPNTSIQRFSPHQMEGVMNQEGGPMQFPASQQGGMKYTSKEEPFETGKIDGGTRNNIPGVGSDANDLDPRIQSRMPHNAFIRSNFPQTSWNVNPGQQIEKEPKKEEQFSRRISAQSPRLSAGGPPQSPLSSKSGEFSGGSMGTHYGAVAAAQKDKAVTSIPAIGATQSVGSSANEAMQQRQHQAQMAAKRRTNSLPKTQVISTVGSPVSVNTISVPVNARSPSVGPQTLGDHAILDRFSKIERVAARYQLNCKKHKVDEYSRRPRVYAKQPLTVCLSNLSNEEVFKDEDEALSKSIFGGSMNTYKTRVIHFGQMERVMQGSVPSFIPRNRTRLVMSEKAVDGTVAWYQGDVDEGDVFQAEDFLLALPNTHIADLLATQFKSLMAREGYMIEEHIMAKPNRGDTGPISSHPNSAGGYPRGYSANDMQQYGDAVAGQASGEASKHGNTGNTPNNSTQNILANARMVPPTNSQALQMSQGLLSGVSMPMQPQQLDPQQSALLSSHSQQKNQQSMFTQQQHPQMQRPSMILPTNPLSAINSMSQSSGMQPGGQMANKYSPLQLQMLQQQQQAAVQKKIMMGLGSGVGMGMGMGMGMGMGSMGNSIAGLGALGNQLNMAGRGMGGTGISSSMSVPGIGNMGQNPMNLNPASNLNAISQQLRSGALTPQQNALFTQIRMGMANRGGVMGAPQTGISGVSGTRQMHPSSAGLSMLDQNRANLQRAAAMGNMGPPKLMPGMMNLYMNQQQQQQQLQQQPQQQQLQHQQQLQQPMSQPSQQLAQSPQQQQQLQQHEQPQQAQQQQQATASPLQSVLSPPQVGSPSAGITQQQLQQSSPQQMSQRTPMSPQQVNQRTPMSPQISSGAMHPMSTSNLEGCPASPQLSSQTMGSVGSITNSPMELQGPKNNSAGNNS"}, "B2": {"name": "… (SPCH) (endogenous) (protein, UniProt Q700C7 1-364)", "chain": "MQEIIPDFLEECEFVDTSLAGDDLFAILESLEGAGEISPTAASTPKDGTTSSKELVKDQDYENSSPKRKKQRLETRKEEDEEEEDGDGEAEEDNKQDGQQKMSHVTVERNRRKQMNEHLTVLRSLMPCFYVKRGDQASIIGGVVEYISELQQVLQSLEAKKQRKTYAEVLSPRVVPSPRPSPPVLSPRKPPLSPRINHHQIHHHLLLPPISPRTPQPTSPYRAIPPQLPLIPQPPLRSYSSLASCSSLGDPPPYSPASSSSSPSVSSNHESSVINELVANSKSALADVEVKFSGANVLLKTVSHKIPGQVMKIIAALEDLALEILQVNINTVDETMLNSFTIKIGIECQLSAEELAQQIQQTFC"}, "B3": {"name": "FAMA (endogenous) (protein, UniProt Q56YJ8 1-414)", "chain": "MDKDYSAPNFLGESSGGNDDNSSGMIDYMFNRNLQQQQKQSMPQQQQHQLSPSGFGATPFDKMNFSDVMQFADFGSKLALNQTRNQDDQETGIDPVYFLKFPVLNDKIEDHNQTQHLMPSHQTSQEGGECGGNIGNVFLEEKEDQDDDNDNNSVQLRFIGGEEEDRENKNVTKKEVKSKRKRARTSKTSEEVESQRMTHIAVERNRRKQMNEHLRVLRSLMPGSYVQRGDQASIIGGAIEFVRELEQLLQCLESQKRRRILGETGRDMTTTTTSSSSPITTVANQAQPLIITGNVTELEGGGGLREETAENKSCLADVEVKLLGFDAMIKILSRRRPGQLIKTIAALEDLHLSILHTNITTMEQTVLYSFNVKITSETRFTAEDIASSIQQIFSFIHANTNISGSSNLGNIVFT"}, "B4": {"name": "SWI3C (endogenous) (protein, UniProt Q9XI07 1-807)", "chain": "MPASEDRRGKWKRKKRGGLSAARKPKQEEEDMEEEDEENNNNNNEEMDDVENADELQQNGGATPDPGLGIGEVVEDSGSRISDFPAVVKRVVIRPHASVMAVVAAERAGLIGETRGQGSLPALENISFGQLQALSTVPADSLDLERSDGSSSAYVISPPPIMDGEGVVKRFGDLVHVLPMHSDWFAPNTVDRLERQVVPQFFSGKSPNHTPESYMEFRNAIVSKYVENPEKTLTISDCQGLVDGVDIEDFARVFRFLDHWGIINYCATAQSHPGPLRDVSDVREDTNGEVNVPSAALTSIDSLIKFDKPNCRHKGGEVYSSLPSLDGDSPDLDIRIREHLCDSHCNHCSRPLPTVYFQSQKKGDILLCCDCFHHGRFVVGHSCLDFVRVDPMKFYGDQDGDNWTDQETLLLLEAVELYNENWVQIADHVGSKSKAQCILHFLRLPVEDGLLDNVEVSGVTNTENPTNGYDHKGTDSNGDLPGYSEQGSDTEIKLPFVKSPNPVMALVAFLASAVGPRVAASCAHESLSVLSEDDRMKSEGMQGKEASLLDGENQQQDGAHKTSSQNGAEAQTPLPQDKVMAAFRAGLSAAATKAKLFADHEEREIQRLSANIVNHQLKRMELKLKQFAEIETLLMKECEQVEKTRQRFSAERARMLSARFGSPGGISPQTNNLQGMSLSTGGNNINSLMHQQHQQQQASATSQPSIIPGFSNNPQVQAQMHFMARQQQQQQQQQQQQQQAFSFGPRLPLNAIQTNAGSTASPNVMFGNNQLNNPAAAGAASINQPSFSHPMVRSSTGSGSGSGLGLN"}, "B5": {"name": "SWI3D (endogenous) (protein, UniProt Q8VY05 1-985)", "chain": "MEEKRRDSAGTLAFAGSSGDSPASEPMPAPRRRGGGLKRKANALGGSNFFSSAPSKRMLTREKAMLASFSPVHNGPLTRARQAPSIMPSAADGVKSEVLNVAVGADGEKPKEEEERNKAIREWEALEAKIEADFEAIRSRDSNVHVVPNHCGWFSWEKIHPLEERSLPSFFNGKLEGRTSEVYREIRNWIMGKFHSNPNIQIELKDLTELEVGDSEAKQEVMEFLDYWGLINFHPFPPTDTGSTASDHDDLGDKESLLNSLYRFQVDEACPPLVHKPRFTAQATPSGLFPDPMAADELLKQEGPAVEYHCNSCSADCSRKRYHCPKQADFDLCTECFNSGKFSSDMSSSDFILMEPAEAPGVGSGKWTDQETLLLLEALEIFKENWNEIAEHVATKTKAQCMLHFLQMPIEDAFLDQIDYKDPISKDTTDLAVSKDDNSVLKDAPEEAENKKRVDEDETMKEVPEPEDGNEEKVSQESSKPGDASEETNEMEAEQKTPKLETAIEERCKDEADENIALKALTEAFEDVGHSSTPEASFSFADLGNPVMGLAAFLVRLAGSDVATASARASIKSLHSNSGMLLATRHCYILEDPPDNKKDPTKSKSCSADAEGNDDNSHKDDQPEEKSKKAEEVSLNSDDREMPDTDTGKETQDSVSEEKQPGSRTENSTTKLDAVQEKRSSKPVTTDNSEKPVDIICPSQDKCSGKELQEPLKDGNKLSSENKDASQSTVSQSAADASQPEASRDVEMKDTLQSEKDPEDVVKTVGEKVQLAKEEGANDVLSTPDKSVSQQPIGSASAPENGTAGGNPNIEGKKEKDICEGTKDKYNIEKLKRAAISAISAAAVKAKNLAKQEEDQIRQLSGSLIEKQLHKLEAKLSIFNEAESLTMRVREQLERSRQRLYHERAQIIAARLGVPPSMSSKASLPTNRIAANFANVAQRPPMGMAFPRPPMPRPPGFPVPGSFVAATTMTGSSDPSPGSDNVSSV"}, "B6": {"name": "LUH (endogenous) (protein, UniProt O48847 1-787)", "chain": "MAQSNWEADKMLDVYIYDYLVKKKLHNTAKSFMTEGKVSPDPVAIDAPGGFLFEWWSVFWDIFIARTNEKHSEAAAAYIEAQQGKAKEQQMQIQQLQMMRQAQMQRRDPNHPSLGGPMNAIGSEGMIGQSNASALAAKMYEERMKQPNPMNSETSQPHLDARMALLKSATNHHGQIVQGNHQGGVSAALQQIQSRTQQPTEIKTEVNLGTSPRQLPVDPSTVYGQGILQSKPGMGSAGLNPGVSGLPLKGWPLTGIEQMRPGLGGPQVQKSFLQNQSQFQLSPQQQQHQMLAQVQAQGNMTNSPMYGGDMDPRRFTGLPRGNLNPKDGQQNANDGSIGSPMQSSSSKHISMPPVQQSSSQQQDHLLSQQSQQNNRKRKGPSSSGPANSTGTGNTVGPSNSQPSTPSTHTPVDGVAIAGNMHHVNSMPKGPMMYGSDGIGGLASSANQLLQDDMDQFGDVGALEDNVESFLSQDDGDGGSLFGTLKRNSSVHTETSKPFSFNEVSCIRKSASKVICCSFSYDGKLLASAGHDKKVFIWNMETLQVESTPEEHAHIITDVRFRPNSTQLATSSFDKTIKIWDASDPGYFLRTISGHAAPVMSIDFHPKKTELLCSCDSNNDIRFWDINASCVRAVKGASTQVRFQPRTGQFLAAASENTVSIFDIENNNKRVNIFKGHSSNVHSVCWSPNGELVASVSEDAVKLWSLSSGDCIHELSNSGNKFHSVVFHPSYPDLLVIGGYQAIELWNTMENKCMTVAGHECVISALAQSPSTGVVASASHDKSVKIWK"}},
  "note": "Results are given in words; binding and its absence hold for the method and conditions named. In cells and extracts the contact can be indirect. A yes stands for co-enrichment or nearness to the bait. Other partners may have been found.",
  "data": [
    {"target": "T1, SCRM-TbID-Venus (SCRMp::SCRM-TbID-Venus) (Arabidopsis thaliana) (UniProt Q9LSE2)", "T1 sequence": "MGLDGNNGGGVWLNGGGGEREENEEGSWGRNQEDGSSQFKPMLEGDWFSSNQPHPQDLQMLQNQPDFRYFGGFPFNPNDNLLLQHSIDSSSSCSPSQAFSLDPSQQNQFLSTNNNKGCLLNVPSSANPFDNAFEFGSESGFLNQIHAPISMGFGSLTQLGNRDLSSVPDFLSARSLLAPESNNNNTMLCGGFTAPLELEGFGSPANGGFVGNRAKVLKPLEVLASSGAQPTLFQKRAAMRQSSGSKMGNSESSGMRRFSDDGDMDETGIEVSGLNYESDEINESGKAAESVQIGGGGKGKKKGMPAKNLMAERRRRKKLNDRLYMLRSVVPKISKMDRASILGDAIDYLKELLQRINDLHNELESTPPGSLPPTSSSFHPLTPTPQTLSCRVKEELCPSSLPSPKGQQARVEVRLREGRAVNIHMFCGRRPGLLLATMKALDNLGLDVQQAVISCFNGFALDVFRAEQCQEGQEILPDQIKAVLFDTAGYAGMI", "assay": "proximity labelling; TurboID fused to SCRM (SCRMp::SCRM-TbID-Venus in ice1-2), 5 day old seedlings in 50 uM biotin, streptavidin bead pulldown, on-bead trypsin digest, LC-MS with label-free quantification; enrichment against WT, SPCHp and FAMAp driven nuclear TbID and untreated SCRM-TbID", "values": [
      {"molecule": "BRIP2 (endogenous) (from UniProt Q9LF51)", "binding": "binds"},
      {"molecule": "SWP73B (endogenous) (from UniProt Q9FMT4)", "binding": "binds"},
      {"molecule": "BRD1 (endogenous) (from UniProt Q9LM88)", "binding": "binds"},
      {"molecule": "SYS1 (endogenous)", "binding": "binds"},
      {"molecule": "HAC5 (endogenous) (from UniProt Q9LE42 1-1670) (enzyme)", "binding": "binds"},
      {"molecule": "TRA1a (endogenous) (from UniProt F4IPJ1)", "binding": "binds"},
      {"molecule": "SYS3 (endogenous) (from UniProt Q9SD86)", "binding": "binds"},
      {"molecule": "BRAHMA (BRM) (endogenous) (from UniProt Q6EVK6 1-2193) (enzyme)", "binding": "binds"},
      {"molecule": "B1", "binding": "binds"},
      {"molecule": "B2", "binding": "binds"},
      {"molecule": "B3", "binding": "binds"},
      {"molecule": "B4", "binding": "binds"},
      {"molecule": "B5", "binding": "binds"},
      {"molecule": "B6", "binding": "binds"}
    ]}
  ]
}
